Test results: the supplement of paper PMC10849652
The list shows a part of the results.

Chains of the proteins cited; added tags and fusions are not shown. Lines headed by an entry give the natural chain unless they say otherwise; changes in a name come on top.
UniProt Q12849: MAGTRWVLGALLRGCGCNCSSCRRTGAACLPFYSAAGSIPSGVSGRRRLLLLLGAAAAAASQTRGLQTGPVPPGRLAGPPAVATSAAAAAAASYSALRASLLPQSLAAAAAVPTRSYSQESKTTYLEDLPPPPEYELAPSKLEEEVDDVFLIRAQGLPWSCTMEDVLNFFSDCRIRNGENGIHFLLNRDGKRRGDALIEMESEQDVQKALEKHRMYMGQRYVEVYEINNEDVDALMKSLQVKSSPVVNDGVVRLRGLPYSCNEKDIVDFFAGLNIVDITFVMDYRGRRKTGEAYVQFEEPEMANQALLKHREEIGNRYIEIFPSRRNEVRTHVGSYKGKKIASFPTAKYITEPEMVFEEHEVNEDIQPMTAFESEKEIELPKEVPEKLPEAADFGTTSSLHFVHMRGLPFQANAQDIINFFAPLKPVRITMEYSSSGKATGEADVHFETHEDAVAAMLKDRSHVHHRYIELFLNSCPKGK
UniProt Q9H4A6: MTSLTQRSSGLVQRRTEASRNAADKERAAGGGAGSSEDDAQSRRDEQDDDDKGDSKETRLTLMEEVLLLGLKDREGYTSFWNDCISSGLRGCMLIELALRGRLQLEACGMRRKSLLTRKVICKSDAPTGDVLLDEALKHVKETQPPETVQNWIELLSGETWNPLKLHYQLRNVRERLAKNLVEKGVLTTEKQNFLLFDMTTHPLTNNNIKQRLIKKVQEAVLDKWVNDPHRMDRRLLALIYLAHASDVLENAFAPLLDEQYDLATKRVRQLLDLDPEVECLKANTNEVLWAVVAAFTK
UniProt B7ZAQ6: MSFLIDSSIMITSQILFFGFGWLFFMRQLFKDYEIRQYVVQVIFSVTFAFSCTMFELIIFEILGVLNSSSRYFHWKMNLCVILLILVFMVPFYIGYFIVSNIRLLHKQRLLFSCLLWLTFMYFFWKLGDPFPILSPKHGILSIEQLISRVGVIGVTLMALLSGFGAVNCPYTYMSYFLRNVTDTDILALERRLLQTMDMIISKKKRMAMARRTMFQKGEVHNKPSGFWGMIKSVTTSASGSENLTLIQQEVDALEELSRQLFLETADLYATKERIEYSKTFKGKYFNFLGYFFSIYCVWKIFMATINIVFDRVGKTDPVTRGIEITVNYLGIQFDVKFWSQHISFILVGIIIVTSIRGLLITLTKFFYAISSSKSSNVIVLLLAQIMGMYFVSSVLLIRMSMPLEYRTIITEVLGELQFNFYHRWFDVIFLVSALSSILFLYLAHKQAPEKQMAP
UniProt P16278: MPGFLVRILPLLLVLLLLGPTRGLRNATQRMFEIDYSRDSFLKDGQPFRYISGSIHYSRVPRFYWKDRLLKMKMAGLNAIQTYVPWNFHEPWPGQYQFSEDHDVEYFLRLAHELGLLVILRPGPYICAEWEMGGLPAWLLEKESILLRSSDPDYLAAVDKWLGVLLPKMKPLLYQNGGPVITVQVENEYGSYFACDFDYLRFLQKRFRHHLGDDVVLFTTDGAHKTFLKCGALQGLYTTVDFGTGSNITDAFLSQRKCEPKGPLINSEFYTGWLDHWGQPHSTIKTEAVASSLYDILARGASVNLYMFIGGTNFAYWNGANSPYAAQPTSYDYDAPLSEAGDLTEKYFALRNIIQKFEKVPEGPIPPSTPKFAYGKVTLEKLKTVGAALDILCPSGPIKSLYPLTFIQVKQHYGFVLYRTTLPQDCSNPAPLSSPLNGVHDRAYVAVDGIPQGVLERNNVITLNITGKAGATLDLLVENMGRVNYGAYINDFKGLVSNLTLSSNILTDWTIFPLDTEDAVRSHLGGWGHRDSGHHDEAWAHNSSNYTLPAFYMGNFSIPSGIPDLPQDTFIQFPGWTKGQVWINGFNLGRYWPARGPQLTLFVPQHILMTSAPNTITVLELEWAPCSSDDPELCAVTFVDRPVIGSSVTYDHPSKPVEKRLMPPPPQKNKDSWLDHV
UniProt P17174: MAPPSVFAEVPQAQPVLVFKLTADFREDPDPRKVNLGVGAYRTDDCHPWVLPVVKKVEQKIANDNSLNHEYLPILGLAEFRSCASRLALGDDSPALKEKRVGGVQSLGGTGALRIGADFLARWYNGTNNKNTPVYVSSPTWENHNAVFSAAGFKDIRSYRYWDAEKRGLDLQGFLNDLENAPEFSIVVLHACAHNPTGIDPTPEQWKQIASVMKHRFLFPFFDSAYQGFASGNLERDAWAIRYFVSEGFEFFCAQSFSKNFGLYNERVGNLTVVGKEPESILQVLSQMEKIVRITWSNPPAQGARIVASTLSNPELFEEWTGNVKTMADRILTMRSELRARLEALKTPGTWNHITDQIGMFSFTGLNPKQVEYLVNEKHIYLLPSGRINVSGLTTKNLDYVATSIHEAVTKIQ
UniProt P50148, whole entry, looked up: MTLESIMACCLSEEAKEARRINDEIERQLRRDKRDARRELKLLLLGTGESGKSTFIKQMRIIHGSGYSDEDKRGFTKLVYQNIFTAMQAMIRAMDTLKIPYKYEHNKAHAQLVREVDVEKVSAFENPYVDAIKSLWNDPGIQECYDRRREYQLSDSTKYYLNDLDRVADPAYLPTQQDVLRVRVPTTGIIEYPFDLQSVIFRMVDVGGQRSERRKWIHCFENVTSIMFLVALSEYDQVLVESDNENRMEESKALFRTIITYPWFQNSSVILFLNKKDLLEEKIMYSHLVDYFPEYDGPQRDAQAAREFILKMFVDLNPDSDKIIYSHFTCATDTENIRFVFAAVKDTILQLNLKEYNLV
UniProt P63218: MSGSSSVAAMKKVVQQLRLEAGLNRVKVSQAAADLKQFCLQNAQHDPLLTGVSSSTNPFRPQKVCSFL
UniProt O00461: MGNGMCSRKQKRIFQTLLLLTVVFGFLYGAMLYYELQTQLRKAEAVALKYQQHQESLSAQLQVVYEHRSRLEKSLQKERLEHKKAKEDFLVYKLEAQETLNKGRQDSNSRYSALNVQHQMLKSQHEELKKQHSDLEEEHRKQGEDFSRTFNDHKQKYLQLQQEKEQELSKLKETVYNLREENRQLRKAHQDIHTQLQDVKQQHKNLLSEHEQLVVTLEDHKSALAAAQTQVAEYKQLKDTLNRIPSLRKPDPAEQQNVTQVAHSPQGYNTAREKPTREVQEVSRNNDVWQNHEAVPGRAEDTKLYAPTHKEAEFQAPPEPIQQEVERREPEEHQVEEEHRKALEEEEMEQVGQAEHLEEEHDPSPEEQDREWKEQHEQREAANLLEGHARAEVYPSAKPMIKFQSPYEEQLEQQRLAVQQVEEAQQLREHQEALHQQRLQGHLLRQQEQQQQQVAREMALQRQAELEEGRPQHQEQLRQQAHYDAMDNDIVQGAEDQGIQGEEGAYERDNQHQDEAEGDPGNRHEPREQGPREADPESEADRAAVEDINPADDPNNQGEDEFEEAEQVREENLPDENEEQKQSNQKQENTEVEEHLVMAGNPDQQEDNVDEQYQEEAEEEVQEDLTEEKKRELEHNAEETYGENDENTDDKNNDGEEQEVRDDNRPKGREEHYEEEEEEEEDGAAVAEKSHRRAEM
UniProt P04899, whole entry, looked up: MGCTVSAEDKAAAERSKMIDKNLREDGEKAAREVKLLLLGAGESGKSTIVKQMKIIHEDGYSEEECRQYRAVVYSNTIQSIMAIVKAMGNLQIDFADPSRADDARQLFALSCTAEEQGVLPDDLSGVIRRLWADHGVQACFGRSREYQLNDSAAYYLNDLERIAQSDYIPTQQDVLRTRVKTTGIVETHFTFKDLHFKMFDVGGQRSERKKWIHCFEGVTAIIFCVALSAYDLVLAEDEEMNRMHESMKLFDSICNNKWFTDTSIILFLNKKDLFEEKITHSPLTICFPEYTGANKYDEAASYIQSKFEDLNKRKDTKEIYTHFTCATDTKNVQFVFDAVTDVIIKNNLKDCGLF
UniProt O14653: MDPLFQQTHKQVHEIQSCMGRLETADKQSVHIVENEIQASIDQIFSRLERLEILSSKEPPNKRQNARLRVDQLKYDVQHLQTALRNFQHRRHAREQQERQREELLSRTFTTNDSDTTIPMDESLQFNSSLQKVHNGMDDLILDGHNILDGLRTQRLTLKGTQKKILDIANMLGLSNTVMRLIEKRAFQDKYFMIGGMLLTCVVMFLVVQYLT
UniProt Q8IXQ4: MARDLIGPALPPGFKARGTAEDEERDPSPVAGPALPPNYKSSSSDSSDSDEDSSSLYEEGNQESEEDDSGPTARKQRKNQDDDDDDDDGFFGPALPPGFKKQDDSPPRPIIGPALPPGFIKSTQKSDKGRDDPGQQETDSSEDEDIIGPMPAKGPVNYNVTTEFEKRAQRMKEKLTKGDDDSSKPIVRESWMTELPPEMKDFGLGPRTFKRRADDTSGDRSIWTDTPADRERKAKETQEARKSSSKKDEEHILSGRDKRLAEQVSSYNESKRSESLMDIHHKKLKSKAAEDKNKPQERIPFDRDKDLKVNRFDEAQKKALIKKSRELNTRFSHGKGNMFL
UniProt Q9UKJ3: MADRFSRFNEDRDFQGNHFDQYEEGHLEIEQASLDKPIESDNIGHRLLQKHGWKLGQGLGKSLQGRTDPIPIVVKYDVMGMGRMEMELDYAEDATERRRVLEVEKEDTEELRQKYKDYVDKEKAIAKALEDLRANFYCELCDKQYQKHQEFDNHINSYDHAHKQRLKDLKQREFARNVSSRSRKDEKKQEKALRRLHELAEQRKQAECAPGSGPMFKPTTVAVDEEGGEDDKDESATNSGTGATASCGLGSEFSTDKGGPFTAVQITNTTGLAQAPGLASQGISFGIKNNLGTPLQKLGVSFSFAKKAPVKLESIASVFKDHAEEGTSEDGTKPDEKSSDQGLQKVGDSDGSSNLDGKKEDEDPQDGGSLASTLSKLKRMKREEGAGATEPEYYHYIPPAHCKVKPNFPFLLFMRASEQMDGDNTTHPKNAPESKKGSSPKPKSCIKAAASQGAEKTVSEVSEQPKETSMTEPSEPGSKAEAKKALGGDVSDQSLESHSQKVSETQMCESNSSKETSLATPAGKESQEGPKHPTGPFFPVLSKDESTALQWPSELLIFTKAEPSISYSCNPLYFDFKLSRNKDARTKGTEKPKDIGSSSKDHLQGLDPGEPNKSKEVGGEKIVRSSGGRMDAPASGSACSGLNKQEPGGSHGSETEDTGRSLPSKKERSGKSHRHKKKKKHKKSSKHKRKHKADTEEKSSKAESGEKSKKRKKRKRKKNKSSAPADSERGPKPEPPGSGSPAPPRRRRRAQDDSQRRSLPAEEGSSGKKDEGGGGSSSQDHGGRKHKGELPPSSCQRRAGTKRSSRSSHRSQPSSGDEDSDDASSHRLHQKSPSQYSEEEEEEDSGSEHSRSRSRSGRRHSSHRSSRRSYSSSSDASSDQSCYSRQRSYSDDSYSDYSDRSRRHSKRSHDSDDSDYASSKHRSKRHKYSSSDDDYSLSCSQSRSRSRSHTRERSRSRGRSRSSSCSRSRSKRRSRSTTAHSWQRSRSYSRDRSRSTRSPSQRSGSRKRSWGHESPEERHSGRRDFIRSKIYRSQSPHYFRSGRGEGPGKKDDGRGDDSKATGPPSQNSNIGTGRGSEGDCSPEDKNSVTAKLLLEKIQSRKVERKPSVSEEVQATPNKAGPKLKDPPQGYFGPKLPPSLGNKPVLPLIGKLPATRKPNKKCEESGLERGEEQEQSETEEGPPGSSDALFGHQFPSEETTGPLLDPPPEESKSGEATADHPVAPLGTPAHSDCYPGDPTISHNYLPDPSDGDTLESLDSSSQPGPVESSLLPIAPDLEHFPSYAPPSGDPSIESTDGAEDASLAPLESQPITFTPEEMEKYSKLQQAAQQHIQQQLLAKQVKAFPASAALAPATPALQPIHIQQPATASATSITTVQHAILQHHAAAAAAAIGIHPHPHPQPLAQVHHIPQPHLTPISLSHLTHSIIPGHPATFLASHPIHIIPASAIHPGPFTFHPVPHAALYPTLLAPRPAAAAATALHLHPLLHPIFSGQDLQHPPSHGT
UniProt Q86SX6: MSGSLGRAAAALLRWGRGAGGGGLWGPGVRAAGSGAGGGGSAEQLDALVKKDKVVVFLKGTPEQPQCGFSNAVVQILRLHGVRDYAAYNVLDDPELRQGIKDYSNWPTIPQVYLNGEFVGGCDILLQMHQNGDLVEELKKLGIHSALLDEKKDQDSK
UniProt P32189: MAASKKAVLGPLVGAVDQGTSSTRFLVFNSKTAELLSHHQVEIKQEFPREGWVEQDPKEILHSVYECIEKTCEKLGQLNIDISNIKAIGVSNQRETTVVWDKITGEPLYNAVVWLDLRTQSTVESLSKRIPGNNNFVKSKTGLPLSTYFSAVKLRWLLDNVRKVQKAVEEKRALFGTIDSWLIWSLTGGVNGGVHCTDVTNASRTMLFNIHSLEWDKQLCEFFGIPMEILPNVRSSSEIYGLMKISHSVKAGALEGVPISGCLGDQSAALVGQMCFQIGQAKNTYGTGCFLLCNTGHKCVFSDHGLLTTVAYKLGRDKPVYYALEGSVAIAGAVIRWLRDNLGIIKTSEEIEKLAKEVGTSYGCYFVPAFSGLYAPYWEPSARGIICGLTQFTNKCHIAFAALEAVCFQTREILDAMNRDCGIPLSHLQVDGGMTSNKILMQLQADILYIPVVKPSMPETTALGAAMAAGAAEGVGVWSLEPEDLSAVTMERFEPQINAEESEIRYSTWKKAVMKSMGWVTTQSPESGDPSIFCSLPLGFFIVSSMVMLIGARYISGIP

Columns and labels:
Experiment in all cases: log2 fold change, soluble protein after heating vs DMSO (PISA); higher = thermal stabilisation; K562 cells, 10 uM, 30 min; active = over 0.2 and 3.5 SD of the protein, either way, in both replicates (recomputed)
[1] = compound: C1=CC=C(C=C1)[C@H](COC2=CC3=C(C=C2)NC(=O)N3)NC(=O)C4=CC=CN(C4=O)CC5=CC(=C(C=C5)F)F
How it was run: (§1)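 Thermal stability values are relative to control samples and come from duplicates. They are expressed as log2 fold changes. For measurement, K562 cells (2×10^6 cells/mL) received 10 μM compound for 30 min, and aliquots were heated for 3 min over 48°C-58°C, pooled, and extracted at 4°C in PBS with 0.5% NP-40. Soluble protein, the supernatant after 21,000xg for 90 min, was quantified by TMTpro 16plex LC-MS/MS with equalised channel sums.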

[2] = compound: CC1=C(SC2=C1C(=N[C@H](C3=NN=C(N32)C)CC(=O)N)C4=CC=C(C=C4)Cl)C
How it was run: as §1

[3] = compound: CC1=C2C(=CC=C1)N=C(N(C2=O)C3=CC=CC=C3C)CN4C=NC5=C(N=CN=C54)N
How it was run: as §1

[4] = compound: Cc1sc2c(c1C)C(c1ccc(Cl)cc1)=N[C@@H](CC(=O)OC(C)(C)C)c1nnc(C)n1-2
How it was run: as §1

[5] = compound: c1ccc([C@@H]2C[C@H]2NC2CCNCC2)cc1
How it was run: as §1

Measured: log2 fold change

GRWD1 (UniProt Q9BQ67)
inactive: [1] 0.098 | [2] -0.285 | [3] -0.125 | [4] 0.235 | [5] 0

GRN (UniProt P28799)
inactive: [1] -0.075 | [2] 0.021 | [3] -0.019 | [4] -0.008 | [5] 0.078

GRAMD1A (UniProt Q96CP6)
inactive: [1] -0.055

GRSF1 (UniProt Q12849)
inactive: [1] -0.049 | [2] -0.08 | [3] 0.006 | [4] 0.122 | [5] -0.025

GLUD1 (UniProt P00367)
inactive: [1] 0.046 | [2] 0.065 | [3] -0.004 | [4] 0.071 | [5] -0.03

GINS3 (UniProt Q9BRX5)
inactive: [1] -0.046 | [2] 0.099 | [3] 0.088 | [4] -0.046 | [5] -0.074

GOLPH3 (UniProt Q9H4A6)
inactive: [1] -0.035 | [2] 0.06 | [3] 0.04 | [4] -0.077 | [5] -0.021

GPAT4 (UniProt Q86UL3)
inactive: [1] 0.023 | [2] 0.046 | [3] 0.013 | [4] -0.046 | [5] -0.015

GPR89A (UniProt B7ZAQ6)
inactive: [1] 0.003 | [2] 0.086 | [3] 0.028 | [4] -0.066 | [5] 0.053

GMEB1 (UniProt Q9Y692)
inactive: [1] 0.02 | [2] 0.084 | [3] -0.007 | [4] 0.024 | [5] 0.022

GNL3 (UniProt Q9BVP2)
inactive: [1] 0.101 | [2] 0.112 | [3] 0.164 | [4] -0.131 | [5] -0.053

GNAS (UniProt Q5JWF2)
inactive: [1] 0.016 | [2] -0.008 | [3] 0.045 | [4] -0.038 | [5] 0.013

GK5 (UniProt Q6ZS86)
inactive: [1] 0.097 | [2] 0.018 | [3] 0.106 | [4] 0.135 | [5] 0.084

GLCCI1 (UniProt Q86VQ1)
inactive: [1] -0.088 | [2] -0.041 | [3] 0.137 | [4] 0.013 | [5] -0.075

GPRIN1 (UniProt Q7Z2K8)
inactive: [1] 0.01 | [2] -0.016 | [3] 0.028 | [4] 0.033 | [5] 0.027

GMFB (UniProt P60983)
inactive: [1] 0.007 | [2] 0.057 | [3] 0.014 | [4] -0.013 | [5] -0.034

GLB1 (UniProt P16278)
inactive: [1] 0.042 | [2] -0.065 | [3] 0.011 | [4] -0.043 | [5] 0.026

GRIPAP1 (UniProt Q4V328)
inactive: [1] 0.006 | [2] -0.044 | [3] -0.01 | [4] 0.043 | [5] 0.05

GPAA1 (UniProt O43292)
inactive: [1] -0.021 | [2] 0.005 | [3] 0.01 | [4] -0.03 | [5] -0.05

GMFG (UniProt O60234)
inactive: [1] 0.013 | [2] 0.056 | [3] 0.036 | [4] 0.001 | [5] 0.015

GOT1 (UniProt P17174)
inactive: [1] 0.021 | [2] 0.031 | [3] 0.03 | [4] -0.022 | [5] 0.001

Three entries picked at random from those above:
GLB1 (UniProt P16278)
inactive: [1] 0.042 | [2] -0.065 | [3] 0.011 | [4] -0.043 | [5] 0.026

GPAA1 (UniProt O43292)
inactive: [1] -0.021 | [2] 0.005 | [3] 0.01 | [4] -0.03 | [5] -0.05

GRIPAP1 (UniProt Q4V328)
inactive: [1] 0.006 | [2] -0.044 | [3] -0.01 | [4] 0.043 | [5] 0.05

Carrying on:

GOT2 (UniProt P00505)
inactive: [1] 0.002 | [2] 0.008 | [3] -0.041 | [4] -0.005 | [5] 0.015

GNAQ (UniProt P50148)
inactive: [1] 0 | [2] 0.035 | [3] 0.156 | [4] -0.01 | [5] 0.024

GNB1 (UniProt P62873)
inactive: [1] 0.012 | [2] 0.047 | [3] -0.009 | [4] -0.125 | [5] -0.064

GNG5 (UniProt P63218)
inactive: [1] 0.044 | [2] 0.063 | [3] 0.012 | [4] -0.064 | [5] 0.018

GNL1 (UniProt P36915)
inactive: [1] -0.042 | [2] -0.007 | [3] 0.099 | [4] -0.037 | [5] -0.038

GPHN isoform 2 (UniProt Q9NQX3)
inactive: [1] 0.009 | [2] 0.04 | [3] 0.02 | [4] 0 | [5] 0.026

GNA13 (UniProt Q14344)
inactive: [1] -0.02 | [2] 0.035 | [3] 0.105 | [4] -0.052 | [5] -0.008

GMNN (UniProt O75496)
inactive: [1] 0.033 | [2] 0.01 | [3] 0.011 | [4] -0.018 | [5] 0.011

GMEB2 (UniProt Q9UKD1)
inactive: [1] 0.037 | [2] 0.073 | [3] 0.068 | [4] -0.007 | [5] -0.016

GOLIM4 (UniProt O00461)
inactive: [1] 0.022 | [2] 0.01 | [3] 0.03 | [4] -0.022 | [5] -0.027

GLS isoform 3 (UniProt O94925)
inactive: [1] -0.077 | [2] 0.204 | [3] 0.024 | [4] -0.168 | [5] 0.067

GPR180 (UniProt Q86V85)
inactive: [1] 0 | [2] -0.006 | [3] -0.013 | [4] -0.113 | [5] -0.049

GNAI2 isoform 4 (UniProt P04899)
inactive: [1] 0.027 | [2] -0.073 | [3] 0.013 | [4] -0.083 | [5] -0.006

GPR107 (UniProt Q5VW38)
inactive: [1] 0.009 | [2] 0.074 | [3] 0.036 | [4] -0.041 | [5] -0.023

GPBP1 isoform 2 (UniProt Q86WP2)
inactive: [1] 0.112 | [2] -0.088 | [3] -0.096 | [4] 0.008 | [5] 0.002

GLB1L2 (UniProt Q8IW92)
inactive: [1] -0.014 | [2] 0.082 | [3] -0.043 | [4] -0.025 | [5] -0.162

GNPTAB (UniProt Q3T906)
inactive: [1] -0.058 | [2] -0.113 | [3] 0.153 | [4] 0.134 | [5] -0.036

GMPPB isoform 2 (UniProt Q9Y5P6)
inactive: [1] 0.024 | [2] 0.049 | [3] -0.038 | [4] -0.017 | [5] 0.037

GPN3 isoform 2 (UniProt Q9UHW5)
inactive: [1] -0.046 | [2] 0.025 | [3] 0.055 | [4] 0.03 | [5] -0.044

GOLGA5 (UniProt Q8TBA6)
inactive: [1] 0.011 | [2] -0.023 | [3] 0.027 | [4] -0.053 | [5] 0.029

GOSR2 isoform 2 (UniProt O14653)
inactive: [1] -0.072 | [2] 0.036 | [3] 0.026 | [4] -0.082 | [5] -0.099

GPALPP1 (UniProt Q8IXQ4)
inactive: [1] 0.031 | [2] 0.096 | [3] 0.074 | [4] 0.02 | [5] 0.024

GOLGB1 isoform 2 (UniProt Q14789)
inactive: [1] 0.045 | [2] -0.024 | [3] 0.018 | [4] 0.013 | [5] 0.045

GMPS (UniProt P49915)
inactive: [1] -0.069 | [2] 0.088 | [3] 0.032 | [4] -0.01 | [5] -0.024

GPATCH8 (UniProt Q9UKJ3)
inactive: [1] -0.05 | [2] 0.005 | [3] 0.015 | [4] 0.006 | [5] 0.123

GPN2 (UniProt Q9H9Y4)
inactive: [1] 0.061 | [2] 0.034 | [3] 0.073 | [4] -0.016 | [5] 0.056

GMPR2 isoform 2 (UniProt Q9P2T1)
inactive: [1] 0.011 | [2] 0.04 | [3] 0.014 | [4] -0.016 | [5] 0.02

GLS (UniProt O94925)
inactive: [1] -0.022 | [2] 0.114 | [3] 0.138 | [4] 0.013 | [5] 0.082

GPATCH11 (UniProt Q8N954)
inactive: [1] 0.016 | [2] 0.012 | [3] -0.013 | [4] -0.004 | [5] 0.026

GLRX5 (UniProt Q86SX6)
inactive: [1] 0.093 | [2] 0.217 | [3] 0.205 | [4] -0.072 | [5] 0.033

GRB2 (UniProt P62993)
inactive: [1] -0.042 | [2] 0.04 | [3] 0.019 | [4] -0.004 | [5] 0.004

GPD2 (UniProt P43304)
inactive: [1] 0.022 | [2] 0.005 | [3] 0.012 | [4] 0.003 | [5] 0.025

GK (UniProt P32189)
inactive: [1] 0.032 | [2] 0.026 | [3] 0.013 | [4] -0.013 | [5] 0.001
